In PMC5725494, “Cell cycle-dependent phosphorylation regulates RECQL4 pathway choice and ubiquitination in DNA double-strand break repair”:
Changes are numbered by the printed parent chain. The exact form of at least one protein or probe is not confirmed. At least one verdict rests on a figure or table, not on a statement of the authors. Tags and fusion partners may be left off the protein sequences shown.

Columns and labels:
Assay in all cases: EMSA
Settings in all cases: 50 nM protein, similar affinity for all three proteins; 25 mM HEPES pH 7.4, 5 mM MnCl2, 1 mM DTT, 100 ng/mL BSA, 5% glycerol, no ATP; 10 min at 37 °C; 10% native PAGE; recombinant protein; protein details: 3xFLAG
RECQL4 RQ4-2A S89A,S251A = molecular target: T1, RECQL4 RQ4-2A S89A,S251A (UniProt O94761)
T1 sequence (looked up, limits assumed): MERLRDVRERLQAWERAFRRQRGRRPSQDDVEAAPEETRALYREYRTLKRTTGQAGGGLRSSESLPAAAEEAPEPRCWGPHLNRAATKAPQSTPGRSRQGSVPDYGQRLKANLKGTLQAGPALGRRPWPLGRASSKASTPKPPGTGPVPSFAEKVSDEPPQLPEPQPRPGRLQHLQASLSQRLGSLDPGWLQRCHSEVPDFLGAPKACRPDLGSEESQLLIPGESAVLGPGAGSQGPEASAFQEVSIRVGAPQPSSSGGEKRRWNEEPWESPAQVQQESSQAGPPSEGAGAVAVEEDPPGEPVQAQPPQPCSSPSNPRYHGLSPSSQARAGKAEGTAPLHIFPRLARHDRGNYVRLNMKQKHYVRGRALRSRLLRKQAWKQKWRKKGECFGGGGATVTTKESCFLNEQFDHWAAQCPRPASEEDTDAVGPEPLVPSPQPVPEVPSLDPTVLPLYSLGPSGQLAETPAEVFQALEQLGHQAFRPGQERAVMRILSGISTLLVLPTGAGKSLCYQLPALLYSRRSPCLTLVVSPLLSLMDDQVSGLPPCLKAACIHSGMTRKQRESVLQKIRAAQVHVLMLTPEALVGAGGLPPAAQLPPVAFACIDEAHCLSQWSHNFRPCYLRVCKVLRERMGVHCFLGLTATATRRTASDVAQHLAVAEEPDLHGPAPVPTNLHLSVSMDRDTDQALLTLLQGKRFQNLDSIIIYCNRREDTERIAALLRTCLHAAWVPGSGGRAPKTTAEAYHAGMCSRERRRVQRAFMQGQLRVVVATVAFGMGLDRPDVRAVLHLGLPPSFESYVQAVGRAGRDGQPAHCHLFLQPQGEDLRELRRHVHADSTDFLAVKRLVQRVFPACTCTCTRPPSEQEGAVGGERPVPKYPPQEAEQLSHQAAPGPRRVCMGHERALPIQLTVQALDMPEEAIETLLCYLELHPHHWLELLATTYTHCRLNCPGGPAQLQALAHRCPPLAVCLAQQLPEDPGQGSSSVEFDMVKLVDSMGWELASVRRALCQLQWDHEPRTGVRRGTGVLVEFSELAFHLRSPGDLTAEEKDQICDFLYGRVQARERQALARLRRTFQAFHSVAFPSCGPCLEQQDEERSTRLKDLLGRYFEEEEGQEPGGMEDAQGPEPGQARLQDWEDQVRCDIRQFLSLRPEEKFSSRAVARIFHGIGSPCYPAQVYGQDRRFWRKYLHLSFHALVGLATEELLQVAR

RECQL4 RQ4-2D S89D,S251D = molecular target: T2, RECQL4 RQ4-2D S89D,S251D (UniProt O94761)
T2 sequence (looked up, limits assumed): T1 sequence (looked up, limits assumed) with A89D, A251D

RECQL4 WT (RQ4Wt) = molecular target: T3, RECQL4 WT (RQ4Wt) (UniProt O94761)
T3 sequence (looked up, limits assumed): T1 sequence (looked up, limits assumed) with A89S, A251S

Measured: binding result

ACTTGAATGCGGCTTAGTATGCATTGTAAAACGACGGCCAGTGC / AATGCATACTAAGCCGCATTCAAGT [duplex with 3' ssDNA overhang]
binds: RECQL4 RQ4-2A S89A,S251A | RECQL4 RQ4-2D S89D,S251D | RECQL4 WT (RQ4Wt)
